Measurements: article PMC7346168
Changes are numbered by the printed parent chain. These are yes or no findings as the source states them, for the method shown. In cells and extracts the contact can be indirect. These calls come from enrichment with a bait or labelling near it, and not all partners need be listed. For part of these data: Sequences can lack the tags named with a protein. Each block holds one binder with its values, some of them ahead of it.

Tests used:
[1] = biological target: T1, 2-cysteine peroxiredoxin A, wild type (2-CysPRXA WT) (Arabidopsis) (UniProt Q96291); test: affinity purification with mass spectrometry; oxidizing: his6-tagged 2-CysPRXA variant (3 mg) on Ni-NTA-agarose pretreated with 1 mM H2O2; leaf extract (50 mg protein) made with 1 mM H2O2; 50 mM HEPES pH 8.0, 1 h, 4 °C; stepwise elution with 1 M NaCl, 10 mM DTT, 250 mM imidazole; hits not found on the column without 2-CysPRX; only the target purified
T1 sequence: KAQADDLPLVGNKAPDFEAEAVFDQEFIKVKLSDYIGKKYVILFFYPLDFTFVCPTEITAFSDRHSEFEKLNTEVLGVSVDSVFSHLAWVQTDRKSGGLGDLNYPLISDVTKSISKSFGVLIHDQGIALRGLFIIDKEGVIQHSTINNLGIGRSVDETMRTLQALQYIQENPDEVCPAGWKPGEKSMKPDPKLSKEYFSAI

[2] = biological target: T2, 2-CysPRXA C54D (pseudo-hyperoxidized variant) (Arabidopsis) (UniProt Q96291); test: affinity purification with mass spectrometry; same pull down as a1 and a2, hits compiled from the results with all variants, redox and elution conditions; the redox condition is not told for the hit; only the target purified
T2 sequence: T1 sequence with C54D

- binding [1]: binds
B1: HTPA synthase 2 (protein, UniProt Q9FVC8 40-365)
chain: AVVPNFHLPMRSLEVKNRTNTDDIKALRVITAIKTPYLPDGRFDLEAYDDLVNIQIQNGAEGVIVGGTTGEGQLMSWDEHIMLIGHTVNCFGGSIKVIGNTGSNSTREAIHATEQGFAVGMHAALHINPYYGKTSIEGLIAHFQSVLHMGPTIIYNVPGRTGQDIPPRAIFKLSQNPNLAGVKECVGNKRVEEYTENGVVVWSGNDDECHDSRWDYGATGVISVTSNLVPGLMRKLMFEGRNSSLNSKLLPLMAWLFHEPNPIGINTALAQLGVSRPVFRLPYVPLPLSKRLEFVKLVKEIGREHFVGEKDVQALDDDDFILIGRY

- binding [2]: binds
B2: α-GLUCAN WATER DIKINASE 1 (protein, UniProt Q9SAC6 76-1399)
chain: VLAMDPQAAEKFSLDGNIDLLVEVTSTTVREVNIQIAYTSDTLFLHWGAILDNKENWVLPSRSPDRTQNFKNSALRTPFVKSGGNSHLKLEIDDPAIHAIEFLIFDESRNKWYKNNGQNFHINLPTERNVKQNVSVPEDLVQIQAYLRWERKGKQMYNPEKEKEEYEAARTELREEMMRGASVEDLRAKLLKKDNSNESPKSNGTSSSGREEKKKVSKQPERKKNYNTDKIQRKGRDLTKLIYKHVADFVEPESKSSSEPRSLTTLEIYAKAKEEQETTPVFSKKTFKLEGSAILVFVTKLSGKTKIHVATDFKEPVTLHWALSQKGGEWLDPPSDILPPNSLPVRGAVDTKLTITSTDLPSPVQTFELEIEGDSYKGMPFVLNAGERWIKNNDSDFYVDFAKEEKHVQKDYGDGKGTAKHLLDKIADLESEAQKSFMHRFNIAADLVDEAKSAGQLGFAGILVWMRFMATRQLVWNKNYNVKPREISKAQDRLTDLLQDVYASYPEYRELLRMIMSTVGRGGEGDVGQRIRDEILVIQRKNDCKGGIMEEWHQKLHNNTSPDDVVICQALMDYIKSDFDLSVYWKTLNDNGITKERLLSYDRAIHSEPNFRGEQKDGLLRDLGHYMRTLKAVHSGADLESAIQNCMGYQDDGEGFMVGVQINPVSGLPSGYPDLLRFVLEHVEEKNVEPLLEGLLEARQELRPLLLKSHDRLKDLLFLDLALDSTVRTAIERGYEQLNDAGPEKIMYFISLVLENLALSSDDNEDLIYCLKGWQFALDMCKSKKDHWALYAKSVLDRSRLALASKAERYLEILQPSAEYLGSCLGVDQSAVSIFTEEIIRAGSAAALSSLVNRLDPVLRKTANLGSWQVISPVEVVGYVIVVDELLTVQNKTYDRPTIIVANRVRGEEEIPDGAVAVLTPDMPDVLSHVSVRARNGKICFATCFDSGILSDLQGKDGKLLSLQPTSADVVYKEVNDSELSSPSSDNLEDAPPSISLVKKQFAGRYAISSEEFTSDLVGAKSRNIGYLKGKVPSWVGIPTSVALPFGVFEKVISEKANQAVNDKLLVLKKTLDEGDQGALKEIRQTLLGLVAPPELVEELKSTMKSSDMPWPGDEGEQRWEQAWAAIKKVWASKWNERAYFSTRKVKLDHDYLCMAVLVQEVINADYAFVIHTTNPSSGDSSEIYAEVVKGLGETLVGAYPGRSLSFICKKNNLDSPLVLGYPSKPIGLFIRRSIIFRSDSNGEDLEGYAGAGLYDSVPMDEEDQVVLDYTTDPLITDLSFQKKVLSDIARAGDAIEKLYGTAQDIEGVIRDGKLYVVQTRPQV

- binding [1]: binds
B3: NADPH-dependent thioredoxin reductase C (protein, UniProt O22229 68-529)
chain: ATANSPSSSSSGGEIIENVVIIGSGPAGYTAAIYAARANLKPVVFEGYQMGGVPGGQLMTTTEVENFPGFPDGITGPDLMEKMRKQAERWGAELYPEDVESLSVTTAPFTVQTSERKVKCHSIIYATGATARRLRLPREEEFWSRGISACAICDGASPLFKGQVLAVVGGGDTATEEALYLTKYARHVHLLVRRDQLRASKAMQDRVINNPNITVHYNTETVDVLSNTKGQMSGILLRRLDTGEETELEAKGLFYGIGHSPNSQLLEGQVELDSSGYVLVREGTSNTSVEGVFAAGDVQDHEWRQAVTAAGSGCIAALSAERYLTSNNLLVEFHQPQTEEAKKEFTQRDVQEKFDITLTKHKGQYALRKLYHESPRVILVLYTSPTCGPCRTLKPILNKVVDEYNHDVHFVEIDIEEDQEIAEAAGIMGTPCVQFFKNKEMLRTISGVKMKKEYREFIEANK
